These are literature values, as cited in patent publication US7659078B1, “Method and kit for determination of prostacyclin in plasma” (University of Kentucky Research Foundation, priority 2002, dated 2010).

SMILES strings stand for the structures.

For the data set the following is noted: in plasma; cited from earlier work.

As a reminder, the half-life is the time needed for the level to fall by half in the phase considered. Regarding `CCCCC[C@H](O)/C=C/[C@@H]1[C@H]2C/C(=C/CCCC(=O)O)O[C@H]2C[C@H]1O` [Prostacyclin], the half-life is 1 h.
